These results are taken from patent US7857962B2, “Potentiometric electrode, gradient polymer, uses and method of preparation therefor” (Universiteit Antwerpen, priority 2004, dated 2010).

Data set [1] is described as follows: HPLC potentiometric detection of organic acids, ionophore-based electrode. The conditions noted are these: for detection limit: minimum amount of acid required for detection: malonic acid, pmol injected, electrode comprising the compound, eluent 1 mM H3PO4.
Test in data set [2]: as above
The conditions noted are these: citric acid; pmol injected; electrode comprising the compound; eluent 1 mM H3PO4.

Test in data set [3]: as above
The conditions noted are these: succinic acid; pmol injected; electrode comprising the compound; eluent 1 mM H3PO4.

Test in data set [4]: as above
The note with it: lactic acid; pmol injected; electrode comprising the compound; eluent 1 mM H3PO4.

Test in data set [5]: as above
The note with it: tartaric acid; pmol injected; electrode comprising the compound; eluent 1 mM H3PO4.

As to `CCCCCCCCCCCCCCCCCCNC(=O)NCCN(CCNC(=O)NCCCCCCCCCCCCCCCCCC)CCNC(=O)NCCCCCCCCCCCCCCCCCC` [Compound 1], the “detection limit: minimum amount of acid required for detection” value (shortened to “detection limit: minimum amount”) in data set [1] was determined as 1.6 pmol; in data set [2], 23 pmol; in data set [3] it was 77 pmol; in data set [4], 830 pmol; in data set [5] it was 20 pmol.
On the same counts, the results for `O=C(NCCN(CCNC(=O)Nc1ccccc1)CCNC(=O)Nc1ccccc1)Nc1ccccc1` [Compound 2] are 1.0 pmol, 10 pmol, 56 pmol, 910 pmol and 12 pmol.
Regarding `CCCCCCCCCCCCCCCCCCNC(=O)Nc1cccc(N)n1` [Compound 3], the “detection limit for malonic acid” value in data set [1] (coating 33.8% PVC, 66% o-NPOE, 0.2% MTDDACl, 1% ligand 3) is listed as “low picogram range”. The “detection limit: minimum amount” value in data set [1] stood at 1.1 pmol; in data set [2], 7 pmol; in data set [3], 47 pmol; in data set [4], 650 pmol; in data set [5], 11 pmol.
In the case of `CCCCCCCCCCCCCCCCCCNC(=O)Nc1cccc(NC(=O)NCCCCCCCCCCCCCCCCCC)n1` [Compound 4], the “detection limit: minimum amount” value in data set [1] worked out at 1.6 pmol; in data set [2] it was 15 pmol; in data set [3], 86 pmol; in data set [4], 1200 pmol; in data set [5], 23 pmol.
As for `CCCCCCCCCCCC[N+](C)(CCCCCCCCCCCC)CCCCCCCCCCCC.[Cl-]` [MTDDACI, methyltridodecylammoniumchloride, reference compound], the “detection limit: minimum amount” value amounted to 200 pmol in data set [1]; 200 pmol in data set [2]; 700 pmol in data set [3]; 1000 pmol in data set [4]; 200 pmol in data set [5].
